We go through 2 substances from paper PMC6210175.

Amino acid sequences for entries named in this document (tags omitted).
UniProt P38936: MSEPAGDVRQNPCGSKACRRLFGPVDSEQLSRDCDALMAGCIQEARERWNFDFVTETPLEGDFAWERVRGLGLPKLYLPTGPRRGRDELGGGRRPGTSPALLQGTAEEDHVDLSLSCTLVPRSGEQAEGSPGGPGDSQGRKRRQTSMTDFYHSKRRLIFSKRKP
UniProt O96017: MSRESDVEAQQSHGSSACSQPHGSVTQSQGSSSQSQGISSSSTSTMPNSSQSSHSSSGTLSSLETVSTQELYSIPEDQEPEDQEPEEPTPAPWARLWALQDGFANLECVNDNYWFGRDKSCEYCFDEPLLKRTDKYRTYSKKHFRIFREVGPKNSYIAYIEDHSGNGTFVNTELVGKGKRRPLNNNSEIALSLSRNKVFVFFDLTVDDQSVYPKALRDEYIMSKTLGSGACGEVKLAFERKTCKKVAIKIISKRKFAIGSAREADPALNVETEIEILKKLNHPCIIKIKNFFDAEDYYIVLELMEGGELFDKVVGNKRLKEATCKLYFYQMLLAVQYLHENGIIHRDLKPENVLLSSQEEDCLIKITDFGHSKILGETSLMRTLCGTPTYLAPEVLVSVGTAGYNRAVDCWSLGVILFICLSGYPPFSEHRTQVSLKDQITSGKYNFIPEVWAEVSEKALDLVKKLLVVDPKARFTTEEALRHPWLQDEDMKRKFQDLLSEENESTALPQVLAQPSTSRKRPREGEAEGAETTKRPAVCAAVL

These are yes or no findings as the source states them, for the method shown. In cells and extracts the contact can be indirect. Some entries that bind do so weakly or less than the wild type.

In test [1] the target is p21 phosphorylated at threonine 145 (p-p21^T145) (human (endogenous in colorectal cancer cells)) (UniProt P38936). Briefly: co-IP; lysates of cells treated with rising 5FU concentrations; immunoprecipitated with the p-p21 antibody or the p21 antibody, Chk2 signal read (Figure S6a,b); method of these precipitations not described.
The target of test [2] is Chk2 phosphorylated at threonine 68 (p-Chk2^T68) (human (endogenous in HCT116 and HT29)) (UniProt O96017). Nature of the test: proximity ligation; Duo-link in situ PLA in fixed, permeabilised HT29 cells treated with 100 uM 5FU for 48 h; primary antibodies anti-p21 and anti-p-Chk2 (T68); signals mainly in the nuclei, a few in the cytoplasm.
Test [3] shares this target. Briefly: co-IP; HCT116 cells treated with 5FU (25 and 100 uM) for 48 h, dead cells removed; cells fixed with 2% formaldehyde before lysis in RIPA buffer; 600-900 ug lysate with anti-p-Chk2(T68) antibody on magnetic Protein G beads overnight at 4 C; blot with anti-p21.

With “Chk2 (from UniProt O96017 1-543) (enzyme)”, the binding entry in test [1] is given as “binds”. As for “p21 protein (also known as WAF1 or CIP1) (from UniProt P38936 1-164)”, the binding result in test [2] and in test [3] was “binds” throughout.
